In PubChem BioAssay AID540276 (National Center for Advancing Translational Sciences (NCATS), 2011):
About 5,400 (1.8%) of roughly 300,000 compounds were called active. Inconclusive means that the source gave no clear call. Such entries were picked first, then a sample of the others. Calls follow the shape of the full dose curve; tested in HEK293 cells. A potency beside an inconclusive call is a rough fit, not a confirmed value.

Assay: qHTS for inhibitors of binding or entry into cells for Marburg Virus
Settings: Marburg virus pseudotyped entry inhibition, cell reporter; activity change, negative = inhibition: at 37.8 µM (top of the series) unless noted
% is scaled to controls: 0 for no effect and ±100 for the full control effect; potency is read from the fitted curve at half-maximal effect.

SMILES	Potency	activity change, negative = inhibition
COc1ccc(C(C(=O)NC(C)(C)C)N(Cc2ccco2)C(=O)CCC(=O)Nc2ccccn2)cc1 (stereo not given)	inconclusive: 14.1 µM [activator, partial curve, poor fit]	–
S=C(NCCc1ccccn1)Nc1cc(Cl)cc(Cl)c1	inconclusive: 10 µM [inhibitor, partial curve]	–
O=C(NNC(=O)c1cccc2ccccc12)c1ccc(Cl)cc1	inconclusive: 5.62 µM [activator, single point]	–
COc1ccc2c(c1)C1(Nc3ccccc3-c3nc4ccccc4n31)C(=O)N2C (stereo not given)	inactive	–
COc1ccc(Cl)c(NC(=O)C/C(C)=N/NC(=O)CCc2ccccc2)c1	inconclusive: 22.4 µM [inhibitor, single point]	–
CN(C)CCNC(=O)NC1CCCCC1	inconclusive: 31.6 µM [activator, single point]	–
Cc1ccc(CN2CCC(NC(=O)c3ccccc3)CC2)cc1	inconclusive: 6.31 µM [inhibitor, single point]	–
CNC(=S)N/N=C(\C)c1ccc(C(C)(C)C)cc1	inconclusive: 11.2 µM [activator, partial curve, poor fit]	–
CN(Cc1ccccc1)C(=O)C1CCCN(c2ncnc3c2nc2n3CCCCC2)C1 (stereo not given)	inactive	–
Cc1ccc(Sc2ccc(/C=N/O)cc2[N+](=O)[O-])cc1	inconclusive: 15.8 µM [inhibitor, partial curve, poor fit]	–
CCOc1ccc(N2C(=O)CC(S/C(N)=N/N=C/c3cccs3)C2=O)cc1 (stereo not given)	inconclusive: 2.51 µM [inhibitor, full curve, poor fit]	–
Cc1cc2occ(CC(=O)Nc3nccs3)c2cc1C(C)C	inconclusive: 14.6 µM [inhibitor, partial curve, poor fit]	–
CN1CCN(CCCNCc2cn(CCC#N)c3ccccc23)CC1	inconclusive: 7.08 µM [inhibitor, partial curve, poor fit]	–
CCOC(=O)c1ccc(NC(=O)CCc2nc(-c3ccc(Cl)cc3)no2)cc1	inconclusive: 13 µM [inhibitor, partial curve]	–
CC(C)CNC(=O)Cn1nc(C(F)(F)F)c2c1CCCC2	inconclusive: 15.8 µM [activator, single point]	–
Cc1ccc(S(=O)(=O)n2nc(C)cc2C)cc1	inactive	–
COc1cccc(-n2cnc3sc(C)c(C)c3c2=O)c1	inconclusive: 2.82 µM [activator, full curve, poor fit]	–
CC1(C)CC[C@]2(C(=O)n3ccnc3)CC[C@]3(C)[C@H](C(=O)C=C4[C@@]5(C)C=C(C#N)C(=O)C(C)(C)[C@@H]5CC[C@]43C)[C@@H]2C1	active: 2.51 µM	–
CC(C)NC(=O)Cn1c(SCC(=O)NC2CCCC2)nc2ccccc21	inactive	–
O=C(c1ccc(F)cc1)C1CCN(Cc2ccc(F)cc2)CC1	inactive	–
COc1ccc(C(=O)NCCSCc2ccco2)cc1OC	inconclusive: 5.17 µM [activator, single point]	–
COC(=O)COc1ccc(Oc2nc(NC(C)(C)C)nc(N3CCOCC3)n2)nn1	inconclusive: 35.5 µM [inhibitor, single point]	–
Cc1nc(N2CCN(S(=O)(=O)c3ccc(Br)cc3)CC2)c2c(C)c(C)sc2n1	inconclusive: 3.16 µM [activator, partial curve, poor fit]	–
CC(=O)c1ccc(N2CCN(CC(=O)N(CC(C)C)c3c(N)n(CC(C)C)c(=O)[nH]c3=O)CC2)cc1	inactive	–

SMILES	Potency	activity change, negative = inhibition
NC(=S)NN=C1c2cc(Cl)ccc2-c2c1cc(Cl)cc2[N+](=O)[O-]	inactive	–
CCCSc1nnc2c(n1)OC(CC)N(C(C)=O)c1ccccc1-2 (stereo not given)	inactive	–
Cc1c(C(=O)N2CCCC2)c(S(=O)(=O)Nc2ccccc2Cl)c(C)n1C	inconclusive: 0.562 µM [activator, full curve, poor fit]	–
CC(C)(C)OC(=O)N/N=C/c1cc(N=Nc2ccccc2)ccc1O	inconclusive: 20 µM [inhibitor, single point]	–
COc1ccccc1Cn1[nH]nnc1=S	inactive	–
O=C(CCCc1nc2ccccc2s1)N1CCN(S(=O)(=O)c2cccs2)CC1	active: 10 µM	–
NC(=O)NC(Cc1ccccc1)C(=O)NCC1(N2CCCCC2)CCCCC1 (stereo not given)	inconclusive: 14.1 µM [inhibitor, single point]	–
CCn1cc(Br)c(C(=O)Nc2ccccc2C(=O)OC)n1	inconclusive: 14.1 µM [inhibitor, single point]	–
COc1ccc(Br)cc1C(=O)Nc1ccc(NC(=O)c2ccco2)cc1	inactive	–
O=C(O)CSc1ccnc2cc(Cl)ccc12	inactive	–
CCCCCCCCCCCCCCCCCC(=O)NCC(COP(=O)([O-])OCC[N+](C)(C)C)OCC (stereo not given)	active: 20 µM	–
CC1CN=C(Nc2ccc(F)cc2)S1 (stereo not given)	inactive	–
COc1ccc(-n2nc(C(=O)NCc3ccco3)c3ccccc3c2=O)cc1	inconclusive: 0.092 µM [inhibitor, full curve, poor fit]	–
COC(=O)c1ccc(C(=O)NC2CC(C)(C)Cc3c2cnn3-c2ccc(F)cc2)nc1 (stereo not given)	inactive	–
COc1ccccc1NC(=O)CSc1oc(-c2cccs2)nc1S(=O)(=O)c1ccc(C)cc1	inconclusive: 11.2 µM [inhibitor, single point]	–
CC(=O)c1ccn(S(=O)(=O)c2ccccc2)c1	inconclusive: 2.51 µM [activator, partial curve]	–
Cc1cc(C)c(C)c(S(=O)(=O)N2CCC(C(=O)Nc3ccccc3N3CCOCC3)CC2)c1C	inconclusive: 31.6 µM [activator, single point]	–
CC(=O)Nc1ccccc1C(=O)OCC(=O)c1ccc2c(c1)OCCO2	inconclusive: 1.26 µM [activator, single point]	–
Cc1noc(C)c1S(=O)(=O)N1CCCC(C(=O)N2CCN(C3CCCCC3)CC2)C1 (stereo not given)	inactive	–
COc1ccc(OC)c(NC(=O)c2cc3ccccc3cc2OC)c1	inactive	–
CCOc1ccc(NC(=O)CN(C)C(=O)c2cn(-c3ccc(F)cc3)nc2-c2cccc(OC)c2)cc1OCC	inconclusive: 17.8 µM [inhibitor, partial curve, poor fit]	–
Cc1n[nH]c(=O)n1-c1ccc(OC(F)(F)F)cc1	inactive	–
Cc1ccnc(SCC(=O)NC2CC2)n1	inactive	–
COc1ccc(CCNC(=S)Nc2cc(C)ccc2C)cc1	inactive	–

SMILES	Potency	activity change, negative = inhibition
Cc1cc(Br)ccc1NC(=O)CNC(=O)CN(C)Cc1nc2ccccc2c(=O)[nH]1	inactive	–
Cc1ccc(NC(=O)c2cccc(S(C)(=O)=O)c2)cc1	inactive	–
CCOC(=O)c1cnc(-n2nc(C)cc2C)nc1NNc1cc(C)nc(-c2ccccc2)n1	inconclusive: 1.41 µM [inhibitor, partial curve]	–
COc1ccccc1CNC(=O)c1nn(-c2ccc(C)cc2)c(=O)c2c1c1ccccc1n2C	inconclusive: 1.83 µM [inhibitor, partial curve, poor fit]	–
Cc1cccc(C)c1OCc1nc2ccccc2c(=O)n1/N=C/c1c[nH]c2ccccc12	inconclusive: 11.2 µM [inhibitor, partial curve, poor fit]	–
CCN(CC(=O)Nc1c(F)cccc1F)C(=O)Cc1csc(-c2ccc(OC)c(OC)c2)n1	inactive	–
CCN(CC(=O)Nc1ccccc1C(F)(F)F)C(=O)/C=C/c1ccc(Cl)c([N+](=O)[O-])c1	inactive	–
Fc1c(CSC(=S)N2CCOCC2)cccc1CSC(=S)N1CCOCC1	inconclusive: 14.1 µM [inhibitor, single point]	–
COc1ccc(CCNC(=O)CSc2nc3ccccc3nc2Cc2ccc(C)cc2)cc1OC	inconclusive: 3.98 µM [inhibitor, single point]	–
CCC1(c2ccccc2)SC(=O)NC1=O (stereo not given)	inconclusive: 5.62 µM [inhibitor, single point]	–
CCOC(=O)c1ccccc1NC(=O)COC(=O)c1ccc(OCC(=O)N2CCOCC2)c(OCC)c1	–	inconclusive: 4.87% [activator]
CCNS(=O)(=O)c1ccc(NC(=O)c2ccc(Cn3cc(Br)cn3)o2)cc1	inconclusive: 17.8 µM [inhibitor, single point]	–
O=C(NCc1nnc(SCC(=O)N2CCCC2)o1)c1ccc(F)cc1	inactive	–
Cc1ccc(NC(=O)c2ccccc2NC(=O)Cc2ccccc2)cc1	inconclusive: 35.5 µM [inhibitor, partial curve, poor fit]	–
COc1ccc(NC(=O)CSc2nnc(N)s2)c([N+](=O)[O-])c1	inconclusive: 1.12 µM [activator, single point]	–
Cc1ccc(NC(=O)c2cc(N3C(=O)C4CC=CCC4C3=O)ccc2N2CCCCC2)cc1 (stereo not given)	inconclusive: 29.1 µM [inhibitor, single point]	–
COc1ccc(OC)c(-c2cc(C(=O)N3CCN(c4ncccn4)CC3)c3ccccc3n2)c1	inconclusive: 35.5 µM [inhibitor, single point]	–
OCC1(CCc2ccccc2)CCN(Cc2ccc3nsnc3c2)CC1	inactive	–
COc1ccc(-c2cnc(NCc3ccc(C)cc3)n2C)cc1	inactive	–
CCN1CCN(c2nc3ccccc3nc2C(C#N)S(=O)(=O)c2ccc(C)c(C)c2)CC1 (stereo not given)	inconclusive: 32.6 µM [activator, partial curve, poor fit]	–
C=C(C)c1nc(Oc2ccccc2)nc(Oc2ccccc2)n1	inconclusive: 14.1 µM [inhibitor, partial curve, poor fit]	–
Oc1cc(O)c(CN2CCOCC2)cc1CN1CCOCC1	inconclusive: 3.16 µM [activator, partial curve, poor fit]	–

Filtered by structure: the entries above with a tert-butyl group
SMILES	Potency	activity change, negative = inhibition
COc1ccc(C(C(=O)NC(C)(C)C)N(Cc2ccco2)C(=O)CCC(=O)Nc2ccccn2)cc1 (stereo not given)	inconclusive: 14.1 µM [activator, partial curve, poor fit]	–
CNC(=S)N/N=C(\C)c1ccc(C(C)(C)C)cc1	inconclusive: 11.2 µM [activator, partial curve, poor fit]	–
COC(=O)COc1ccc(Oc2nc(NC(C)(C)C)nc(N3CCOCC3)n2)nn1	inconclusive: 35.5 µM [inhibitor, single point]	–
CC(C)(C)OC(=O)N/N=C/c1cc(N=Nc2ccccc2)ccc1O	inconclusive: 20 µM [inhibitor, single point]	–
